Data published in article PMC12501352.
Results are given in words; binding and its absence hold for the method and conditions named. Binding seen in cells or lysates may run through a third protein. Some entries that bind do so weakly or less than the wild type.

What was measured:
[1] = target: T1, USP15 (human (endogenous in Mac-ADSCs)) (UniProt Q9Y4E8); experiment: co-IP; Mac-ADSC lysates immunoprecipitated with USP15 antibody (IgG as control) and protein A/G agarose beads; Western blot for p62 and Plin1
T1 sequence: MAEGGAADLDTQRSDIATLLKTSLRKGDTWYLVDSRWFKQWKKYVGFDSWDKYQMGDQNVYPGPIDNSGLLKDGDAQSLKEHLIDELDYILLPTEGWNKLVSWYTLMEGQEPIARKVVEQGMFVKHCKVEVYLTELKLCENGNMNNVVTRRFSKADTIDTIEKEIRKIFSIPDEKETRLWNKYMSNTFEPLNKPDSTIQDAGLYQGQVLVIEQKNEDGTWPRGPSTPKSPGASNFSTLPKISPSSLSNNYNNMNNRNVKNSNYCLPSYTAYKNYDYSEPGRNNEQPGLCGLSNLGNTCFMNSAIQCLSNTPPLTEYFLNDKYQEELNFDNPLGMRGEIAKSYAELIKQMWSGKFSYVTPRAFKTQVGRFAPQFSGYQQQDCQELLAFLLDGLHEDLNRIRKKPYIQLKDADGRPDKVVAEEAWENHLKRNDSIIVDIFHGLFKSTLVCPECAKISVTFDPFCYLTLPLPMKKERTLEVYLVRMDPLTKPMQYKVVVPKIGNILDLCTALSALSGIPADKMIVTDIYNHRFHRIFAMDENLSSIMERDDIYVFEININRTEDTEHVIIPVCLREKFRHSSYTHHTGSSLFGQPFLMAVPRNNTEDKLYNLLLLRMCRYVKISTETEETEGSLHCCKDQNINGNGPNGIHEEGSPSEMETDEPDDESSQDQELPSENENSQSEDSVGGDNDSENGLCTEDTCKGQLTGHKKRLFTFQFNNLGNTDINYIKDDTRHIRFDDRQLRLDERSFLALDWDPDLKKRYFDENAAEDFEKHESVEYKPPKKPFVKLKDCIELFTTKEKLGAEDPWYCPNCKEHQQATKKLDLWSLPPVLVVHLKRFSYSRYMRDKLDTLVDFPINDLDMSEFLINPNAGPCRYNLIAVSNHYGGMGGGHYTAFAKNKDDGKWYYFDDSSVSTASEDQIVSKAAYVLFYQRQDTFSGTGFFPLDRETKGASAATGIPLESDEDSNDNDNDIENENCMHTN

[2] = target: T2, Plin1 (human (endogenous in Mac-ADSCs)) (UniProt O60240); experiment: co-IP; Mac-ADSC lysates immunoprecipitated with Plin1 antibody (IgG as control) and protein A/G agarose beads; Western blot for USP15 and p62
T2 sequence: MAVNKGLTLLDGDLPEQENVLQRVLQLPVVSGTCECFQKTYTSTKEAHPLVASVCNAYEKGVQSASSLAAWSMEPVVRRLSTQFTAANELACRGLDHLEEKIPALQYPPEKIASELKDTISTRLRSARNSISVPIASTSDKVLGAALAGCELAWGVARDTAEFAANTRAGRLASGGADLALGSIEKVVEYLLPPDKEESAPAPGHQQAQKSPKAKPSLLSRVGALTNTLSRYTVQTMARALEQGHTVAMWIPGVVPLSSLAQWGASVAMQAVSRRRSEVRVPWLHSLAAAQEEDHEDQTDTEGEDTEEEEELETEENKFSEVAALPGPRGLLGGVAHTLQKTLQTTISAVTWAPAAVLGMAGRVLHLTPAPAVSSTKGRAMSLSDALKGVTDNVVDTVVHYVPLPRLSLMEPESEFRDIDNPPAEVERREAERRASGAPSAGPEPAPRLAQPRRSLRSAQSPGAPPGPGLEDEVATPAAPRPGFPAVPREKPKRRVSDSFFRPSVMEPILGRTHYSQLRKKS

SQSTM1/p62 (from UniProt Q13501 1-440) was tested, and the binding [1] was “binds” and the binding [2] was “binds”.

B1: Plin1 (protein, UniProt O60240 1-522)
chain: MAVNKGLTLLDGDLPEQENVLQRVLQLPVVSGTCECFQKTYTSTKEAHPLVASVCNAYEKGVQSASSLAAWSMEPVVRRLSTQFTAANELACRGLDHLEEKIPALQYPPEKIASELKDTISTRLRSARNSISVPIASTSDKVLGAALAGCELAWGVARDTAEFAANTRAGRLASGGADLALGSIEKVVEYLLPPDKEESAPAPGHQQAQKSPKAKPSLLSRVGALTNTLSRYTVQTMARALEQGHTVAMWIPGVVPLSSLAQWGASVAMQAVSRRRSEVRVPWLHSLAAAQEEDHEDQTDTEGEDTEEEEELETEENKFSEVAALPGPRGLLGGVAHTLQKTLQTTISAVTWAPAAVLGMAGRVLHLTPAPAVSSTKGRAMSLSDALKGVTDNVVDTVVHYVPLPRLSLMEPESEFRDIDNPPAEVERREAERRASGAPSAGPEPAPRLAQPRRSLRSAQSPGAPPGPGLEDEVATPAAPRPGFPAVPREKPKRRVSDSFFRPSVMEPILGRTHYSQLRKKS
With B1 the binding [1] was “binds”.

B2: USP15 (enzyme, UniProt Q9Y4E8 1-981)
chain: MAEGGAADLDTQRSDIATLLKTSLRKGDTWYLVDSRWFKQWKKYVGFDSWDKYQMGDQNVYPGPIDNSGLLKDGDAQSLKEHLIDELDYILLPTEGWNKLVSWYTLMEGQEPIARKVVEQGMFVKHCKVEVYLTELKLCENGNMNNVVTRRFSKADTIDTIEKEIRKIFSIPDEKETRLWNKYMSNTFEPLNKPDSTIQDAGLYQGQVLVIEQKNEDGTWPRGPSTPKSPGASNFSTLPKISPSSLSNNYNNMNNRNVKNSNYCLPSYTAYKNYDYSEPGRNNEQPGLCGLSNLGNTCFMNSAIQCLSNTPPLTEYFLNDKYQEELNFDNPLGMRGEIAKSYAELIKQMWSGKFSYVTPRAFKTQVGRFAPQFSGYQQQDCQELLAFLLDGLHEDLNRIRKKPYIQLKDADGRPDKVVAEEAWENHLKRNDSIIVDIFHGLFKSTLVCPECAKISVTFDPFCYLTLPLPMKKERTLEVYLVRMDPLTKPMQYKVVVPKIGNILDLCTALSALSGIPADKMIVTDIYNHRFHRIFAMDENLSSIMERDDIYVFEININRTEDTEHVIIPVCLREKFRHSSYTHHTGSSLFGQPFLMAVPRNNTEDKLYNLLLLRMCRYVKISTETEETEGSLHCCKDQNINGNGPNGIHEEGSPSEMETDEPDDESSQDQELPSENENSQSEDSVGGDNDSENGLCTEDTCKGQLTGHKKRLFTFQFNNLGNTDINYIKDDTRHIRFDDRQLRLDERSFLALDWDPDLKKRYFDENAAEDFEKHESVEYKPPKKPFVKLKDCIELFTTKEKLGAEDPWYCPNCKEHQQATKKLDLWSLPPVLVVHLKRFSYSRYMRDKLDTLVDFPINDLDMSEFLINPNAGPCRYNLIAVSNHYGGMGGGHYTAFAKNKDDGKWYYFDDSSVSTASEDQIVSKAAYVLFYQRQDTFSGTGFFPLDRETKGASAATGIPLESDEDSNDNDNDIENENCMHTN
B2 was tested, and the binding [2] was “binds”.
